Laboratory results reported in publication PMC5589762.
These are yes or no findings as the source states them, for the method shown. In cells and extracts the contact can be indirect. Some binding calls cover weakened binding; strength is not graded here. Where a sequence is shown, tags or fusion partners need not be part of it.

The chains behind the UniProt entries cited, without tags or fusion partners. Where a name states a change or a piece, a line headed by the entry shows the natural chain unless it says otherwise.
UniProt Q12692: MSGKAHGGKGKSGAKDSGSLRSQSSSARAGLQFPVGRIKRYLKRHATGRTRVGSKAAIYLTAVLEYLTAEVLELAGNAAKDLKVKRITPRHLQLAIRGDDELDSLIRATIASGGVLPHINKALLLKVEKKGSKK

B1: TAP-tagged Nap1 (protein, UniProt P25293 1-417)
chain: MSDPIRTKPKSSMQIDNAPTPHNTPASVLNPSYLKNGNPVRAQAQEQDDKIGTINEEDILANQPLLLQSIQDRLGSLVGQDSGYVGGLPKNVKEKLLSLKTLQSELFEVEKEFQVEMFELENKFLQKYKPIWEQRSRIISGQEQPKPEQIAKGQEIVESLNETELLVDEEEKAQNDSEEEQVKGIPSFWLTALENLPIVCDTITDRDAEVLEYLQDIGLEYLTDGRPGFKLLFRFDSSANPFFTNDILCKTYFYQKELGYSGDFIYDHAEGCEISWKDNAHNVTVDLEMRKQRNKTTKQVRTIEKITPIESFFNFFDPPKIQNEDQDEELEEDLEERLALDYSIGEQLKDKLIPRAVDWFTGAALEFEFEEDEEEADEDEDEEEDDDHGLEDDDGESAEEQDDFAGRPEQAPECKQS
B2: TAP-tagged Chz1, P40019 1-153 (protein)
chain: MSDEAKEKRELESQKESSHNKSEKSVEPKPKRRRRRNYDDYDAEVAKEETKAKNGLTKSENNGTVEDSESDMDDAKLDALMGNEGEEEEDDLAEIDTSNIITSGRRTRGKVIDYKKTAEELDKKEPSTGSKDDVGYGEKEEDDEDEEDDDFKE

How the values were obtained:
[1] = molecular target: H2A.Z (Htz1), wild type, 2Flag-tagged (S. cerevisiae) (UniProt Q12692); test: co-IP; htz1Δ yeast strains bearing TAP-tagged Nap1 or Chz1, transformed with WT or mutant H2A.Z-2Flag plasmids; read by immunoblot; performed as in ref. 10
[2] = molecular target: H2A.Z (Htz1), wild type, 2Flag-tagged (S. cerevisiae), Q12692; test: as above; details: remark: other sources report otherwise

Binder | binding [1] | binding [2]
B1 | binds | –
B2 | – | binds
